Assay results taken from paper PMC9374436.
Results are given in words; binding and its absence hold for the method and conditions named. Binding seen in cells or lysates may run through a third protein. Some entries that bind do so weakly or less than the wild type. Tags and fused reporters may be left off the sequences shown.

The chains behind the UniProt entries cited, without tags or fusion partners. Where a name states a change or a piece, a line headed by the entry shows the natural chain unless it says otherwise.
UniProt P53622: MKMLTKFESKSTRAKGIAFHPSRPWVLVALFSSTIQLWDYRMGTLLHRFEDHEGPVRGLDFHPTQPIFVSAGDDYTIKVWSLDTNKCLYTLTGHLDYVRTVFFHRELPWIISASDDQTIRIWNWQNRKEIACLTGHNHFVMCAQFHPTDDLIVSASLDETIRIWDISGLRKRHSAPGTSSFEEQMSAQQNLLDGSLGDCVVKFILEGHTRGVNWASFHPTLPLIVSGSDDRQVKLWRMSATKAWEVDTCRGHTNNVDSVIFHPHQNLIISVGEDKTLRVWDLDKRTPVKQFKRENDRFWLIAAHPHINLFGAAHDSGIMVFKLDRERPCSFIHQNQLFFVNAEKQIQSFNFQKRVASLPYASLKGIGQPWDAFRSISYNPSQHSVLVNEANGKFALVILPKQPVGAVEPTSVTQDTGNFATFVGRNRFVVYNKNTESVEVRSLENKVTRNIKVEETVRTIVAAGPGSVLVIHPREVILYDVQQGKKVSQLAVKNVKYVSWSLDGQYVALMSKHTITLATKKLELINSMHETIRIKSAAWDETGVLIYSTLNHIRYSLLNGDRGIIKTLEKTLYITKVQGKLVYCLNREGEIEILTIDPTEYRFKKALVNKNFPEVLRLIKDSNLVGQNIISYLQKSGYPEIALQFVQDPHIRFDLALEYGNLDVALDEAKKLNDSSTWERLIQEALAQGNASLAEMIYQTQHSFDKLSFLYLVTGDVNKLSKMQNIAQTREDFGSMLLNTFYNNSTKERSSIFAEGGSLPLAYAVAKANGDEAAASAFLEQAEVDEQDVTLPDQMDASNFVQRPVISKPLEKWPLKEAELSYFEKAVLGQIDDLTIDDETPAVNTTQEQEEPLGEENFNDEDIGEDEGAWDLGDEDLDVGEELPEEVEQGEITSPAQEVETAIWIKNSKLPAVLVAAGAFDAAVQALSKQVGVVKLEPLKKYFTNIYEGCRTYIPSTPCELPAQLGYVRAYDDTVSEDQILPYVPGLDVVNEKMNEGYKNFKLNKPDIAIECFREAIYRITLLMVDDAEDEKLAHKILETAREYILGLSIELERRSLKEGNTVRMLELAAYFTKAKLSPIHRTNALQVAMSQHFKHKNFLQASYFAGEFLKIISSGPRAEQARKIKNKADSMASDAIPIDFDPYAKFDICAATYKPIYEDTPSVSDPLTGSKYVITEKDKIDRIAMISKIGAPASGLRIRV

What was measured:
[1] = biological target: T1, Bet1-FLAG (S. cerevisiae) (UniProt P22804); experiment: co-IP; anti-FLAG beads from yeast lysate, 'w Ub' conditions: DUB inhibitors in the lysis buffer (0.2% NP40), mock treatment after the IP; blots for COPI, Arf, GST; untagged cells as control
T1 sequence: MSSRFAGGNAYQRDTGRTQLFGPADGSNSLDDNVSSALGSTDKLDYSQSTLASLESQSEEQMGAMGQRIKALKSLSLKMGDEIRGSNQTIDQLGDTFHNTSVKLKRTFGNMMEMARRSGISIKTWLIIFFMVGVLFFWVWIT

[2] = biological target: T2, Gos1-FLAG (S. cerevisiae) (UniProt P38736); experiment: as above
T2 sequence: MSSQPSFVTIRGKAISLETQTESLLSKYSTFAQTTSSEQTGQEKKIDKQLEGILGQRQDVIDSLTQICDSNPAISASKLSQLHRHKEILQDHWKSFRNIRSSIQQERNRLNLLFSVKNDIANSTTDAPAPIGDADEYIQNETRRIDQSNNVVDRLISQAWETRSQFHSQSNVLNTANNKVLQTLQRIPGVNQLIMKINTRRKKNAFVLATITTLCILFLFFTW

[3] = biological target: T2, Gos1-FLAG (S. cerevisiae); experiment: co-IP; anti-FLAG beads from yeast lysate, 'w/o Ub' conditions: no DUB inhibitors in the lysis buffer, immunoprecipitate treated with Usp2, AMSH and OTULIN; blots for COPI, Arf, GST

For “COPI (coatomer protein I) (from UniProt P53622 1-1201; P41810 1-973; P41811 1-889; P32074 1-935; P43621 1-546; P40509 1-296; P53600 1-189) (complex)”, the binding [1] was “binds”, the binding [2] was “binds” and the binding [3] was “binds weakly”.
